Data source: PubChem BioAssay AID1259254 (NCATS, 2017)
Test: 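Finding genes that stop cells copying their DNA twice in one cycle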 (primary screen). Cells: human HCT116 colorectal cancer cells. Reagents: single siRNA against human genes. Time to read-out: 3 days. Read-out: 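Nuclei stained with Hoechst and imaged; cell-cycle phase assigned by DNA content; G2 share scaled per plate, non-targeting siRNA 0%, GMNN siRNA 100%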. Reading the numbers: G2 robust z-score and G2 cells, % of GMNN control: higher = more G2 cells, more excess DNA replication; raw share of cells in G2: higher = larger share of cells with G2 DNA content. Call rule: 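An siRNA counts as active if its G2 robust z-score lies at least 5 MADs above the screen median; here such calls match roughly 38% of GMNN control or more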.
Shown is one part, drawn at random, of about 59,000 reagents. About 1,550 of all reagents (2.6%) were called active. 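G2 share is only a proxy for re-replication; each gene was hit by three separate siRNAs, and active genes were retested.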 The raw values are shown without normalisation. A number with no mark means an inactive call. The numbers tell different reagents against one gene apart. Not stated in the record: the amount of reagent.

target | reagent no. | G2 robust z-score | G2 cells, % of GMNN control | raw share of cells in G2 (%)
STIMATE (STIM activating enhancer) | 1 | -1.17 | -5.25 | 1.97
STIMATE (STIM activating enhancer) | 2 | 0.777 | 8.44 | 7.08
STIMATE (STIM activating enhancer) | 3 | 0.329 | 5.28 | 6.9
ZNF321P (zinc finger protein 321, pseudogene) | 1 | 0.11 | 3.74 | 6.42
ZNF321P (zinc finger protein 321, pseudogene) | 2 | 1.34 | 12.4 | 8.8
ZNF321P (zinc finger protein 321, pseudogene) | 3 | 4.92 | 37.6 | 22.1
PRUNE2 (prune homolog 2 with BCH domain) | 1 | -0.386 | 0.248 | 3.69
PRUNE2 (prune homolog 2 with BCH domain) | 2 | 1.49 | 13.5 | 7.47
PRUNE2 (prune homolog 2 with BCH domain) | 3 | -0.798 | -2.65 | 1.92
ZCCHC12 (zinc finger CCHC-type containing 12) | 1 | -0.616 | -1.36 | 3.11
ZCCHC12 (zinc finger CCHC-type containing 12) | 2 | -0.761 | -2.39 | 2.16
ZCCHC12 (zinc finger CCHC-type containing 12) | 3 | 0.192 | 4.32 | 4.13
OR3A2 (olfactory receptor family 3 subfamily A member 2) | 1 | 0.715 | 8 | 8.37
OR3A2 (olfactory receptor family 3 subfamily A member 2) | 2 | -0.611 | -1.33 | 3.69
OR3A2 (olfactory receptor family 3 subfamily A member 2) | 3 | -0.00341 | 2.94 | 4.42
RPA4 (replication protein A4) | 1 | -1.43 | -7.1 | 1.67
RPA4 (replication protein A4) | 2 | 1.07 | 10.5 | 10.9
RPA4 (replication protein A4) | 3 | 0.753 | 8.26 | 6.93
TNNT3 (troponin T3, fast skeletal type) | 1 | -1.54 | -7.85 | 2.43
TNNT3 (troponin T3, fast skeletal type) | 2 | -0.872 | -3.17 | 3.71
TNNT3 (troponin T3, fast skeletal type) | 3 | -0.585 | -1.15 | 3.93
C12orf76 (chromosome 12 open reading frame 76) | 1 | -1.11 | -4.87 | 2.77
C12orf76 (chromosome 12 open reading frame 76) | 2 | -0.498 | -0.539 | 3.61
C12orf76 (chromosome 12 open reading frame 76) | 3 | -0.465 | -0.307 | 3.39
NOX5 (NADPH oxidase 5) | 1 | 0.405 | 5.82 | 6.41
NOX5 (NADPH oxidase 5) | 2 | -0.606 | -1.29 | 3.75
NOX5 (NADPH oxidase 5) | 3 | -1.22 | -5.63 | 3.32
ZBTB47 (zinc finger and BTB domain containing 47) | 1 | -0.749 | -2.3 | 2.3
ZBTB47 (zinc finger and BTB domain containing 47) | 2 | 2.14 | 18 | 9.43
ZBTB47 (zinc finger and BTB domain containing 47) | 3 | -0.935 | -3.61 | 2.26
TSC22D1 (TSC22 domain family member 1) | 1 | -0.601 | -1.26 | 3.11
TSC22D1 (TSC22 domain family member 1) | 2 | 0.115 | 3.78 | 7.67
TSC22D1 (TSC22 domain family member 1) | 3 | -0.315 | 0.751 | 3.65
SLC22A4 | 1 | 4.57 | 35.1 | 17.5
SLC22A4 | 2 | 1.19 | 11.3 | 8.43
SLC22A4 | 3 | 5.91 (active) | 44.5 | 18.7
N4BP1 (NEDD4 binding protein 1) | 1 | 0.013 | 3.06 | 6.71
N4BP1 (NEDD4 binding protein 1) | 2 | -0.4 | 0.156 | 4.01
N4BP1 (NEDD4 binding protein 1) | 3 | 3.1 | 24.8 | 12.4
TAS2R4 (taste 2 receptor member 4) | 1 | 3.7 | 29 | 14.9
TAS2R4 (taste 2 receptor member 4) | 2 | 3.08 | 24.7 | 13.9
TAS2R4 (taste 2 receptor member 4) | 3 | 4.02 | 31.3 | 13.1
EEF1A1P47 | 1 | 6.71 (active) | 50.2 | 22.1
EEF1A1P47 | 2 | 1.44 | 13.1 | 8.7
EEF1A1P47 | 3 | -0.937 | -3.63 | 3.29
COQ10B (coenzyme Q10B) | 1 | 0.3 | 5.08 | 6.55
COQ10B (coenzyme Q10B) | 2 | 1.08 | 10.6 | 8.92
COQ10B (coenzyme Q10B) | 3 | -1.3 | -6.16 | 0.692
MRGPRG-AS1 (MRGPRG antisense RNA 1) | 1 | 0.154 | 4.05 | 5.12
MRGPRG-AS1 (MRGPRG antisense RNA 1) | 2 | -0.497 | -0.527 | 2.84
MRGPRG-AS1 (MRGPRG antisense RNA 1) | 3 | 0.943 | 9.6 | 6.19
HLA-C (major histocompatibility complex, class I, C) | 1 | -0.0211 | 2.82 | 4.63
HLA-C (major histocompatibility complex, class I, C) | 2 | 0.799 | 8.59 | 9.33
HLA-C (major histocompatibility complex, class I, C) | 3 | -0.777 | -2.5 | 3.17
MDP1 (magnesium dependent phosphatase 1) | 1 | 1.96 | 16.7 | 9.44
MDP1 (magnesium dependent phosphatase 1) | 2 | -0.678 | -1.8 | 2.36
MDP1 (magnesium dependent phosphatase 1) | 3 | 3.16 | 25.2 | 11.8
QKI (QKI, KH domain containing RNA binding) | 1 | -0.12 | 2.12 | 3.92
QKI (QKI, KH domain containing RNA binding) | 2 | -0.303 | 0.836 | 5.52
QKI (QKI, KH domain containing RNA binding) | 3 | 1.54 | 13.8 | 10.3
PLIN3 (perilipin 3) | 1 | -0.616 | -1.37 | 4.71
PLIN3 (perilipin 3) | 2 | 0.44 | 6.06 | 6.47
PLIN3 (perilipin 3) | 3 | 1.51 | 13.6 | 8.35
ZBTB18 (zinc finger and BTB domain containing 18) | 1 | 2.29 | 19 | 14
ZBTB18 (zinc finger and BTB domain containing 18) | 2 | -1.51 | -7.65 | 2.37
ZBTB18 (zinc finger and BTB domain containing 18) | 3 | -0.783 | -2.54 | 3.02
SCAND3 (SCAN domain containing 3) | 1 | 0.472 | 6.29 | 6.61
SCAND3 (SCAN domain containing 3) | 2 | -0.967 | -3.84 | 2.19
SCAND3 (SCAN domain containing 3) | 3 | -0.307 | 0.806 | 2.05

Reformatted: entries from further up.
TSC22D1 (TSC22 domain family member 1) #1
- G2 robust z-score: -0.601
- G2 cells, % of GMNN control: -1.26
- raw share of cells in G2 (%): 3.11

TSC22D1 (TSC22 domain family member 1) #2
- G2 robust z-score: 0.115
- G2 cells, % of GMNN control: 3.78
- raw share of cells in G2 (%): 7.67

TSC22D1 (TSC22 domain family member 1) #3
- G2 robust z-score: -0.315
- G2 cells, % of GMNN control: 0.751
- raw share of cells in G2 (%): 3.65

SLC22A4 #1
- G2 robust z-score: 4.57
- G2 cells, % of GMNN control: 35.1
- raw share of cells in G2 (%): 17.5

SLC22A4 #2
- G2 robust z-score: 1.19
- G2 cells, % of GMNN control: 11.3
- raw share of cells in G2 (%): 8.43

SLC22A4 #3
- G2 robust z-score: 5.91 (active)
- G2 cells, % of GMNN control: 44.5
- raw share of cells in G2 (%): 18.7

N4BP1 (NEDD4 binding protein 1) #1
- G2 robust z-score: 0.013
- G2 cells, % of GMNN control: 3.06
- raw share of cells in G2 (%): 6.71

N4BP1 (NEDD4 binding protein 1) #2
- G2 robust z-score: -0.4
- G2 cells, % of GMNN control: 0.156
- raw share of cells in G2 (%): 4.01

N4BP1 (NEDD4 binding protein 1) #3
- G2 robust z-score: 3.1
- G2 cells, % of GMNN control: 24.8
- raw share of cells in G2 (%): 12.4

TAS2R4 (taste 2 receptor member 4) #1
- G2 robust z-score: 3.7
- G2 cells, % of GMNN control: 29
- raw share of cells in G2 (%): 14.9
